Data reported in publication PMC3742741 (PLoS ONE, 2013).
These are yes or no findings as the source states them, for the method shown. Tags and fused reporters may be left off the sequences shown.

Tests used:
[1] = target: T1, His-tagged full-length C-terminal cytoplasmic domain of BAP29 (residues 125-237) (human) (UniProt Q9UHQ4); assay: pull-down; IMAC pull-down, His-tagged protein adsorbed to Ni-NTA beads, untagged protein run over in excess, 20 mM Na-P pH 7, 150 mM NaCl, 0.5 mM TCEP, 30 mM imidazole wash, 500 mM imidazole elution, 4 °C; both purified
T1 sequence: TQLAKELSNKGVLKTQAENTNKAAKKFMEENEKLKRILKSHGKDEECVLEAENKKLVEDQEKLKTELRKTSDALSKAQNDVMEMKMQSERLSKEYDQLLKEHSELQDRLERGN

[2] = target: T2, His-tagged full-length C-terminal cytoplasmic domain of BAP31 (residues 124-242) (human) (UniProt P51572); assay: as above
T2 sequence: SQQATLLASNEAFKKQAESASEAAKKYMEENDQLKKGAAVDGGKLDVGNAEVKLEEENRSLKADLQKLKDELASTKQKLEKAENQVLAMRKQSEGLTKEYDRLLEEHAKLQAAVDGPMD

[3] = target: BAP29 vDED (variant of death effector domain of human BAP29, residues 168-229), untagged (human) (UniProt Q9UHQ4); assay: cross-linking; 0.024% glutaraldehyde, ~0.5 mg/mL protein, 20 mM HEPES pH 7.5, 150 mM NaCl, 20 mM TCEP in the dialysis buffer, room temperature, quenched at various time points, SDS-PAGE; both purified
[4] = target: T3, His-tagged BAP31 vDED (residues 168-233) (human) (UniProt P51572); assay: pull-down; IMAC pull-down after denaturing (6M guanidinium-HCl) and renaturing (20 mM Tris-HCl pH 8.0, 75 mM NaCl, 2 mM TCEP) the two proteins together; Ni-NTA beads, 4 °C, washes up to 40 mM imidazole, elution 200 mM imidazole; both purified
T3 sequence: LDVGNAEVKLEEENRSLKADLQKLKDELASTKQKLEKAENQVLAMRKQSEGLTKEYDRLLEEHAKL

[5] = target: T4, BAP31 vDED (variant of death effector domain of human BAP31, residues 168-233), untagged (human) (UniProt P51572); assay: SEC; analytical gel filtration, Superdex 200 5/150 GL, proteins alone or together at 75 µM, pH 4.2, 4 °C; both purified
T4 sequence: T3 sequence

[6] = target: T4, BAP31 vDED (variant of death effector domain of human BAP31, residues 168-233), untagged (human); assay: SEC; analytical gel filtration, Superdex 200 5/150 GL, proteins alone or together at 75 µM, pH 7.0, 4 °C; both purified
[7] = target: BAP29 vDED (variant of death effector domain of human BAP29, residues 168-229), untagged (human) (UniProt Q9UHQ4); assay: cross-linking; 5.5 mM DMS, protein at 0.5, 1.5 and 4.0 mg/mL, 20 mM HEPES pH 7.5, 150 mM NaCl (20 mM TCEP in the dialysis buffer for BAP29), 1 hour at room temperature, SDS-PAGE; both purified

B1: BAP31 full-length C-terminal cytoplasmic region (residues 124-242), untagged (domain or fragment, human, UniProt P51572 124-242, looked up)
chain: T2 sequence
notes: BAP31, human, UniProt P51572, C-terminal cytoplasmic region, residues 124-242; also called BAP31 Cyt; BAP31 full-length cytoplasmic; source: E. coli BL21(DE3) Rosetta 2, purified (IMAC, TEV cleavage, reverse IMAC, gel filtration); not shown: His6, N-terminal, cleaved
[1]
  binding: no binding

B2: BAP29 full-length C-terminal cytoplasmic region (residues 125-237), untagged (protein)
chain: T1 sequence
[2]
  binding: no binding

B3: BAP29 vDED (variant of death effector domain of human BAP29, residues 168-229), untagged (domain or fragment, UniProt Q9UHQ4 168-229)
chain: DEECVLEAENKKLVEDQEKLKTELRKTSDALSKAQNDVMEMKMQSERLSKEYDQLLKEHSEL
[3]
  binding: no binding
[4]
  binding: no binding
[5]
  binding: no binding (tested: 75 µM)
[6]
  binding: no binding (tested: 75 µM)
[7]
  binding: no binding
